Results as given in PubChem BioAssay AID504444 (National Center for Advancing Translational Sciences (NCATS), 2011).
Hit rate of the full screen: of about 360,000 compounds, about 7,500 (2.1%) were called active. The inconclusive results got no clear call from the source; some entries with a clear call stand among them for comparison. Calls follow the shape of the dose curve; as a rule, active = well fitted inhibition curve with a large enough effect; inconclusive = small, poorly fitted or top-dose-only effect, or effect the other way; inactive = flat fitted curve, though single readings scatter. Where the call is inconclusive, the potency comes from a doubtful curve fit.

test: Nrf2 qHTS screen for inhibitors; conditions: A549 ARE-Fluc reporter, luciferase luminescence, 18-24 h; activity change, negative = inhibition: at 46 µM (top of the series); also: nearly all actives have a fitted effect of over 60% in size
Summary of the method: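 Concentration-response testing used A549 ARE_Fluc cells at 5000 cells/well. Following an 18-24 h compound incubation, viability was read by fluorescence (Ex 405/Em 525) and luciferase output by luminescence.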
% is scaled to controls: 0 for no effect and ±100 for the full control effect; potency is read from the fitted curve at half-maximal effect.

SMILES | activity change, negative = inhibition | Potency
Cc1ccc(S(=O)(=O)CC(=O)c2ccccc2)cc1 | inactive: -3.21% | –
N/C(Cc1ccc(Cl)cc1Cl)=N\OC(=O)Cc1cccs1 | – | inconclusive: 13 µM [activator, partial curve]
COc1ccc(NC(=O)C2CC3C=CC2C3)c([N+](=O)[O-])c1 (stereo not given) | inactive: 9.64% | –
Cc1cc(C)n(C(C)CC(=O)Nc2ccc(C)c(F)c2)n1 (stereo not given) | inactive: -16% | –
Cc1cc(C)c2nc(N3CCC(C(=O)NCc4ccccn4)CC3)sc2c1 | – | inconclusive: 6.51 µM [activator, single point]
Cc1ccccc1Cn1c(SCc2ccc(C(=O)NCCc3ccccc3)cc2)nc2ccncc21 | – | inconclusive: 20.6 µM [falling, single point]
N#Cc1cccc(S(=O)(=O)N2CCN(c3ccnc4cc(Cl)ccc34)CC2)c1 | – | active: 10.3 µM
CCOc1ccc(-c2ccc(SCC(=O)Nc3nnc(CC)s3)nn2)cc1 | – | inconclusive: 13 µM [activator, single point]
COc1ccc(C(=O)Nc2nc3n(n2)C(c2ccc(F)cc2)C=C(c2ccc(Cl)cc2)N3)cc1 (stereo not given) | – | inconclusive: 20.6 µM [falling, single point]
COc1ccc(C(=O)Nc2ccc3ccccc3c2)c(OC)c1 | – | inconclusive: 2.91 µM [activator, partial curve]
CN(Cc1ccccc1)c1nc2c(c(=O)[nH]c(=O)n2C)n1Cc1ccccc1Cl | – | inconclusive: 20.6 µM [falling, single point]
O=C(c1ccc(Cn2c(=S)[nH]c3ccccc3c2=O)cc1)N1CCN(c2ccccn2)CC1 | – | inconclusive: 25.9 µM [falling, single point]
CCOc1ccc(NC(=O)CN(C)S(=O)(=O)c2cccs2)cc1 | – | inconclusive: 8.2 µM [activator, partial curve]
Oc1ccc(-c2c(-c3ccsc3)sc3ccccc23)cc1 | – | inconclusive: 29.1 µM [falling, single point]
Cc1c(C(=O)N(C)C)sc2c1c(=O)n(-c1ccc(Cl)c(Cl)c1)c(=O)n2CC(=O)Nc1ccc(Br)cc1F | inactive: 16% | –
CC(C)(C)c1ccc(-n2ncc3c2CCCC3NC(=O)c2cnccn2)cc1 (stereo not given) | – | inconclusive: 20.6 µM [falling, single point]
CC(C)C(NC(=O)CCNC(=O)c1ccc([N+](=O)[O-])cc1)c1nc2ccccc2[nH]1 (stereo not given) | inactive: -0.778% | –
CN(CC(=O)Nc1ccc(Cl)c(C(F)(F)F)c1)CC(=O)NC1CCCCC1 | – | active: 11.6 µM
CSC(C(=O)c1cc2ccccc2o1)c1ccccc1 (stereo not given) | – | inconclusive: 14.6 µM [activator, partial curve, poor fit]
CCOC(=O)/C(C#N)=C1\C(=O)N(Cc2ccccc2)c2ccccc21 | – | inconclusive: 0.731 µM [falling, full curve, poor fit]
CC(C)c1ccc(NC(=O)Cn2c(=O)n(Cc3nc(-c4ccccc4)no3)c(=O)c3cc4c(cc32)OCO4)cc1 | – | inconclusive: 29.1 µM [activator, single point]
Cn1c(NC(=O)/C=C/c2ccco2)cc(=O)n(C)c1=O | – | inconclusive: 23.1 µM [activator, single point]

By substructure, those above containing nitrogen in an aromatic ring
SMILES | activity change, negative = inhibition | Potency
Cc1cc(C)n(C(C)CC(=O)Nc2ccc(C)c(F)c2)n1 (stereo not given) | inactive: -16% | –
Cc1cc(C)c2nc(N3CCC(C(=O)NCc4ccccn4)CC3)sc2c1 | – | inconclusive: 6.51 µM [activator, single point]
Cc1ccccc1Cn1c(SCc2ccc(C(=O)NCCc3ccccc3)cc2)nc2ccncc21 | – | inconclusive: 20.6 µM [falling, single point]
N#Cc1cccc(S(=O)(=O)N2CCN(c3ccnc4cc(Cl)ccc34)CC2)c1 | – | active: 10.3 µM
CCOc1ccc(-c2ccc(SCC(=O)Nc3nnc(CC)s3)nn2)cc1 | – | inconclusive: 13 µM [activator, single point]
COc1ccc(C(=O)Nc2nc3n(n2)C(c2ccc(F)cc2)C=C(c2ccc(Cl)cc2)N3)cc1 (stereo not given) | – | inconclusive: 20.6 µM [falling, single point]
CN(Cc1ccccc1)c1nc2c(c(=O)[nH]c(=O)n2C)n1Cc1ccccc1Cl | – | inconclusive: 20.6 µM [falling, single point]
O=C(c1ccc(Cn2c(=S)[nH]c3ccccc3c2=O)cc1)N1CCN(c2ccccn2)CC1 | – | inconclusive: 25.9 µM [falling, single point]
Cc1c(C(=O)N(C)C)sc2c1c(=O)n(-c1ccc(Cl)c(Cl)c1)c(=O)n2CC(=O)Nc1ccc(Br)cc1F | inactive: 16% | –
CC(C)(C)c1ccc(-n2ncc3c2CCCC3NC(=O)c2cnccn2)cc1 (stereo not given) | – | inconclusive: 20.6 µM [falling, single point]
CC(C)C(NC(=O)CCNC(=O)c1ccc([N+](=O)[O-])cc1)c1nc2ccccc2[nH]1 (stereo not given) | inactive: -0.778% | –
CC(C)c1ccc(NC(=O)Cn2c(=O)n(Cc3nc(-c4ccccc4)no3)c(=O)c3cc4c(cc32)OCO4)cc1 | – | inconclusive: 29.1 µM [activator, single point]
Cn1c(NC(=O)/C=C/c2ccco2)cc(=O)n(C)c1=O | – | inconclusive: 23.1 µM [activator, single point]

(list continues)

SMILES | activity change, negative = inhibition | Potency
COc1cccc(NC(=O)c2ccccc2F)c1 | – | inconclusive: 20.6 µM [activator, partial curve]
CC1CC(C)CN(c2nc3c(c(=O)[nH]c(=O)n3C)n2CCCSc2nc3ccccc3s2)C1 (stereo not given) | inactive: 3.01% | –
CCS(=O)(=O)c1ncc(Cl)c(C(=O)N(Cc2ccccc2)c2ccc(OC)cc2)n1 | – | active: 23.1 µM
Cc1ccc(-n2ncc3c(=O)n(Cc4ccccc4C)cnc32)cc1C | – | inconclusive: 25.9 µM [activator, single point]
O=C(c1cccc(S(=O)(=O)N2CCOCC2)c1)N1CCN(C/C=C/c2ccccc2)CC1 | – | inconclusive: 13 µM [falling, partial curve, poor fit]
O=C(c1ccccc1NS(=O)(=O)c1ccc(Br)s1)N1CCCC1 | inactive: 8.81% | –
O=C(c1cc2cc(Br)ccc2o1)N1CCCCC1 | – | inconclusive: 25.9 µM [activator, partial curve, poor fit]
COc1cc(-c2nnc(SCC(=O)N3c4ccccc4Sc4ccccc43)o2)cc(OC)c1OC | – | inconclusive: 18.4 µM [falling, partial curve]
NS(=O)(=O)c1cccc(NC(=O)COC(=O)CCSc2ccccc2)c1 | inactive: -6.68% | –
Cc1ccc(/C=N/N2CCOCC2)s1 | – | inconclusive: 14.6 µM [activator, partial curve]
FC(F)C(F)(F)c1cc(-c2ccc(Cl)cc2)n[nH]1 | – | inconclusive: 8.2 µM [falling, partial curve, poor fit]
Cc1ccc(S(=O)(=O)N(Cc2ccccc2)c2ccccc2C(=O)Nc2ccccc2C(=O)NCc2ccco2)cc1 | inactive: -20.2% | –
CC(C)N(Cc1nc(-c2ccccc2)no1)C(=O)c1ccc2c(c1)OCO2 | – | inconclusive: 25.9 µM [falling, partial curve, poor fit]
O=c1[nH]c(/C=C/c2cccc3ccccc23)nc2ccccc12 | inactive: -27.8% | –
O=C(O)c1cccc(Nc2ccc([N+](=O)[O-])c3nonc23)c1 | inactive: 0.369% | –
Cc1cccc(C(=O)OCc2cc(=O)n3nc(-c4cccs4)sc3n2)c1 | – | inconclusive: 18.4 µM [activator, partial curve, poor fit]
Cc1ccc(C)c(NC(=O)Cn2c(=O)n(Cc3ccc4c(c3)OCO4)c(=O)c3ccccc32)c1 | – | inconclusive: 36.6 µM [falling, partial curve, poor fit]
CCOC(=O)C1(Cc2ccccc2C#N)CCCCC1=O (stereo not given) | – | inconclusive: 8.2 µM [falling, partial curve, poor fit]
CC[C@]12c3[nH]c4cc(-c5ccco5)ccc4c3CCN1C(=O)[C@@H](CC(=O)NCc1cccc(C(F)(F)F)c1)C[C@@H]2C(=O)N1CCN(C(=O)C2CC2)CC1 | – | inconclusive: 29.1 µM [falling, single point]
CC(C)(C)OC(=O)N1CCC(c2c(C(=O)N3CCCCC3)cnn2-c2ccc(F)cc2F)CC1 | – | inconclusive: 29.1 µM [activator, single point]
O=C(Cn1nc(-c2ccccc2)c2ccccc2c1=O)NN1CCOCC1 | – | inconclusive: 6.51 µM [activator, single point]
COc1ccc(N2CCN(S(=O)(=O)CCNC(=O)/C=C/c3ccc4c(c3)OCO4)CC2)cc1 | – | inconclusive: 18.4 µM [falling, partial curve, poor fit]

SMILES | activity change, negative = inhibition | Potency
COc1ccc(OC)c(Nc2c3c(nc4ccccc24)CCC3)c1 | – | inactive
CS(=O)(=O)N1CCc2cc(C(=O)Nc3ccc(S(N)(=O)=O)cc3)ccc21 | inactive: 12.7% | –
N#C/C(=C\c1ccccc1)C(=O)NCc1ccc(F)cc1 | – | inconclusive: 29.1 µM [activator, partial curve, poor fit]
O=[N+]([O-])c1cc([N+](=O)[O-])c(N2CCOCC2)cc1NCc1ccccc1 | – | inconclusive: 25.9 µM [falling, single point]
COc1ccc(CN2CCN(C(=O)c3ccc(S(=O)(=O)NCc4ccco4)cc3)CC2)cc1F | – | inconclusive: 23.1 µM [falling, partial curve, poor fit]
COc1ccc(-c2[nH]c(-c3ccc4c(c3)OCO4)nc2-c2ccccc2)cc1 | – | active: 20.6 µM
CC12CN3CCN(CC(C3)/C1=N\NC(=O)Nc1cccc(Cl)c1)C2 | – | inconclusive: 23.1 µM [activator, single point]
NC(=O)c1cc(Br)cc2c3c([nH]c12)CCCC3 | – | inconclusive: 29.1 µM [falling, single point]
Oc1ccc(N=Nc2ccc3c(c2)OCCO3)c2ncccc12 | – | active: 18.4 µM
Cc1ccc(Oc2c(C=O)c3ccccc3n2C)cc1 | – | inconclusive: 20.6 µM [falling, partial curve, poor fit]
Cc1nn(C)cc1CNC(=O)C1CCC(=O)N(Cc2cccc(C(F)(F)F)c2)C1 (stereo not given) | inactive: -20.6% | –
Cc1ccc(N2C(=O)c3ccc(N)cc3C2=O)cc1 | – | inconclusive: 5.17 µM [activator, full curve]
CCN(CC)S(=O)(=O)c1ccc(O)c(C(=O)OCC(=O)N2CCCC2)c1 | – | inconclusive: 9.2 µM [activator, partial curve, poor fit]
O=C(O)CNS(=O)(=O)c1ccc(F)cc1 | – | inconclusive: 6.51 µM [falling, single point]
Oc1ccc(Cl)cc1N=Cc1sc2ccccc2c1Cl | – | inconclusive: 11.6 µM [activator, single point]
CC1=C(C(=O)OCCOC(C)C)C(c2cc3c(cc2Br)OCO3)C2=C(CCCC2=O)N1 (stereo not given) | – | inconclusive: 11.6 µM [falling, partial curve, poor fit]
COc1ccc(Cl)cc1-n1c(=S)sc2c(=O)[nH]c(SCC(=O)C(C)(C)C)nc21 | – | inconclusive: 23.1 µM [falling, single point]
O=C(Nc1ccc2[nH]ccc2c1)c1ccc(F)cc1 | – | inconclusive: 23.1 µM [falling, single point]
O=C(CCS(=O)(=O)Cc1ccccc1)Nc1ncc([N+](=O)[O-])s1 | – | inconclusive: 3.66 µM [activator, full curve]
Cc1cc(C)cc(OCC(=O)NCCN2CCOCC2)c1 | – | inconclusive: 32.6 µM [activator, partial curve, poor fit]
CCCc1c(C)c2ccc(OCC(C)=O)cc2oc1=O | – | inconclusive: 2.59 µM [activator, full curve, poor fit]
